Measured values: patent US20150045248
Results from cells or extracts need not show a direct contact. For some of these results: A negative result means that nothing was seen under these conditions. For some of these results: The comparison behind a weaker result is the experiment's own reference, which may not be listed here. For some of these results: For at least one entry, the source does not settle the construct or the ends of the probe.

Protein sequences, listed by entry. Tags and fused reporters are not part of them. Lines headed by an entry give the natural chain unless they say otherwise; changes in a name come on top. Residues count along the entry.
UniProt O75746, 2-678: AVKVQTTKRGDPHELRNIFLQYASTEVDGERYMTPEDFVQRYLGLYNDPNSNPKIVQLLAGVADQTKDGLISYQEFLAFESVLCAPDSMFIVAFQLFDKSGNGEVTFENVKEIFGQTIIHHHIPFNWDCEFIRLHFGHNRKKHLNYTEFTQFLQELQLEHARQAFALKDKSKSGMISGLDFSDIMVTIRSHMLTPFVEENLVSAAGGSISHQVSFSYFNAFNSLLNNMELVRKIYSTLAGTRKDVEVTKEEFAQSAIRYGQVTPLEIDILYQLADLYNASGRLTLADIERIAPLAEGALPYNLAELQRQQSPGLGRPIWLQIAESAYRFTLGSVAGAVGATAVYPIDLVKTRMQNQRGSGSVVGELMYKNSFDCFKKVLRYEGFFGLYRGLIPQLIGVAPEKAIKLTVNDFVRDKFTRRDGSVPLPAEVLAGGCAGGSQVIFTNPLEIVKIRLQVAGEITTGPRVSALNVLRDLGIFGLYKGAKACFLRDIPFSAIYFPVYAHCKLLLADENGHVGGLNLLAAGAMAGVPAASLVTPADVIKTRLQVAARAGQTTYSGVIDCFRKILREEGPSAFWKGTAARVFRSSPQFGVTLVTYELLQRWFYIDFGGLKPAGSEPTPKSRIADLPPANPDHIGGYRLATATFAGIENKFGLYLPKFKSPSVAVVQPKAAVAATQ
UniProt Q9UJS0, 2-675: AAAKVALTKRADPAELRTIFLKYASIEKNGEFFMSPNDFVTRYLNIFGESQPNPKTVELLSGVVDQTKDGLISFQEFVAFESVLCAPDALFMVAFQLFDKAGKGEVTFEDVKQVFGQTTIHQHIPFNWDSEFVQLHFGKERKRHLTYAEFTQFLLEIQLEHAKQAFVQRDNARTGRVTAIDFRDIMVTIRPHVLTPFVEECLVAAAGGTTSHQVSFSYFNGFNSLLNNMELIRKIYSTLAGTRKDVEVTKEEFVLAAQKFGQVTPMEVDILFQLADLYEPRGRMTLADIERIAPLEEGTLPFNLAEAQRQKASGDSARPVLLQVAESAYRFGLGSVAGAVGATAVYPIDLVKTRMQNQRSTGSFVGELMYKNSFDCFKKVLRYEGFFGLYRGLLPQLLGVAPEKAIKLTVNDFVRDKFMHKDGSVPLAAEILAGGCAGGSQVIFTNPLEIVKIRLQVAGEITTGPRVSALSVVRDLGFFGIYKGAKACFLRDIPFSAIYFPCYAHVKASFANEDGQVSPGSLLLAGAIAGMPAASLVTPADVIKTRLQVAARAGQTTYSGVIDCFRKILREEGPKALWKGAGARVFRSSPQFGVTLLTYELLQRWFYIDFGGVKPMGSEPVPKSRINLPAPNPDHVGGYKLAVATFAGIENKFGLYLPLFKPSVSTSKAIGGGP
UniProt Q96DH6: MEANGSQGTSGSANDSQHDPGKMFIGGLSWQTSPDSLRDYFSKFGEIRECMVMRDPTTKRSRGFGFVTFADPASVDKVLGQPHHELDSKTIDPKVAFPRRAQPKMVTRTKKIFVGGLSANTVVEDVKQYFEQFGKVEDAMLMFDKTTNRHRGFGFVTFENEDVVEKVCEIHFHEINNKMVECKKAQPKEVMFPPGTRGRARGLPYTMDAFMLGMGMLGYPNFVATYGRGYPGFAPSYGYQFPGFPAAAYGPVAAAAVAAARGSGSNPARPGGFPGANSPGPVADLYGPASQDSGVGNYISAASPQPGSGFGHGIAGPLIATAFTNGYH

Key:
[1] = biological target: TDP-43 (wild type) (Homo sapiens) (UniProt Q13148); experiment: pull-down; settings: Flag-IP, LC-MS/MS and Northern, protein in a lysate after overexpression, protein details: DAP tag (6xHis-biotinylated-Flag), N-terminal
[2] = biological target: TDP-43 (wild type) (Homo sapiens) (UniProt Q13148); experiment: competition with a labelled probe; settings: protein in a lysate after overexpression, protein details: DAP tag (6xHis-biotinylated-Flag), N-terminal, single-stranded DNA
[3] = biological target: TDP-43 dGR deletion of GR domain (Homo sapiens) (UniProt Q13148); experiment: pull-down; settings: Flag-IP Northern; protein in a lysate after overexpression; protein details: DAP tag (6xHis-biotinylated-Flag)
[4] = biological target: Aralar 1 (SLC25A12) (UniProt O75746); experiment: pull-down; settings: did not co-immunoprecipitate; protein in an extract
[5] = biological target: TDP-43 dRRM1 deletion of RRM1 domain (Homo sapiens) (UniProt Q13148); experiment: pull-down; settings: Flag-IP Northern; protein in a lysate after overexpression; protein details: DAP tag (6xHis-biotinylated-Flag)
[6] = biological target: Aralar 2 (citrin) (UniProt Q9UJS0); experiment: pull-down; settings: did not co-immunoprecipitate; protein in an extract
[7] = biological target: TDP-43 d315 (Homo sapiens) (UniProt Q13148); experiment: pull-down; settings: Flag-IP Northern; protein in a lysate after overexpression; protein details: DAP tag (6xHis-biotinylated-Flag)
[8] = biological target: TDP-43 dRRM2 deletion of RRM2 domain (Homo sapiens) (UniProt Q13148); experiment: pull-down; settings: Flag-IP Northern; protein in a lysate after overexpression; protein details: DAP tag (6xHis-biotinylated-Flag)
[9] = biological target: Musashi 2 (UniProt Q96DH6); experiment: pull-down; settings: co-IP Northern; protein in a lysate after overexpression; protein details: DAP tag
[10] = 200 nM, some inhibition of mt-tRNA binding, variant of mt-tRNAAsn

Q: Does “CAGAGAAUAGUUUAAAUUAGAAUCUUAGCUUUGGGUGCUAAUGGUGGAGUUAAAGACUUUUUCUCUGACCA [mt-tRNAPro]” bind [1]?
A: binds

Q: Does “GCTTAGCTGTTAACTAAGTGTTT [Anticodon oligonucleotide]” bind ([2]; 200 nM, little inhibitory effect, variant of mt-tRNAAsn)?
A: no binding

Q: Does “GTGGGTTTAAGTCCCATTGGTCTAG [T-loop oligonucleotide]” bind [2, 10]?
A: binds more weakly

Q: Does “GUUCUUGUAGUUGAAAUACAACGAUGGUUUUUCAUAUCAUUGGUCGUGGUUGUAGUCCGUGCGAGAAUACCA [mt-tRNAGlu]” bind [1]?
A: binds

Q: Does “TAGATTGAAGCCAGTTGATTAGGGT [D-loop oligonucleotide]” bind [2, 10]?
A: binds more weakly

Q: Does TCTCTCTCTCTCTCTCTCTCTCTC [(TC)12] bind ([2]; 200 nM, no inhibition of mt-tRNA binding)?
A: no binding

Q: Does TGTGTGTGTGTGTGTGTGTGTGTG [(TG)12] bind ([2]; strongest inhibition of mt-tRNA binding at 200 nM in cell extract, concentration-dependent over 2, 20, 200 nM)?
A: binds

Q: Does TTGTTGTTGTTGTTGTTGTTGTTG [TT(GTT)7G] bind ([2]; 200 nM inhibits mt-tRNA binding, less than (TG)12)?
A: binds

Q: What does the source list for “UAGAUUGAAGCCAGUUGAUUAGGGUGCUUAGCUGUUAACUAAGUGUUUGUGGGUUUAAGUCCCAUUGGUCUAGCCA [mt-tRNAAsn]”?
A: binding result [3]: binds; binding result [4]: no binding; binding result ([1]; urea PAGE, 50 mM Tris pH 7.4, 150 mM NaCl, 4 C): binds; binding result [5]: no binding; binding result [6]: no binding; binding result [7]: binds; binding result [8]: binds; binding result [9]: binds

Q: Does “UAGGAUGGGGUGUGAUAGGUGGCACGGAGAAUUUUGGAUUCUCAGGGAUGGGUUCGAUUCUCAUAGUCCUAGCCA [mt-tRNAGln]” bind [3]?
A: binds

Q: Does “UAGGAUGGGGUGUGAUAGGUGGCACGGAGAAUUUUGGAUUCUCAGGGAUGGGUUCGAUUCUCAUAGUCCUAGCCA [mt-tRNAGln]” bind [1]?
A: binds

Q: Does “UAGGAUGGGGUGUGAUAGGUGGCACGGAGAAUUUUGGAUUCUCAGGGAUGGGUUCGAUUCUCAUAGUCCUAGCCA [mt-tRNAGln]” bind [5]?
A: no binding

Q: Does “UAGGAUGGGGUGUGAUAGGUGGCACGGAGAAUUUUGGAUUCUCAGGGAUGGGUUCGAUUCUCAUAGUCCUAGCCA [mt-tRNAGln]” bind [7]?
A: binds

Q: Does “UAGGAUGGGGUGUGAUAGGUGGCACGGAGAAUUUUGGAUUCUCAGGGAUGGGUUCGAUUCUCAUAGUCCUAGCCA [mt-tRNAGln]” bind [8]?
A: binds

Q: Does “UAGGAUGGGGUGUGAUAGGUGGCACGGAGAAUUUUGGAUUCUCAGGGAUGGGUUCGAUUCUCAUAGUCCUAGCCA [mt-tRNAGln]” bind [9]?
A: binds
